Here are results for 2 molecules from doi:10.1101/858852.

Protein sequences, listed by entry. Tags and fused reporters are not part of them.
UniProt P51532: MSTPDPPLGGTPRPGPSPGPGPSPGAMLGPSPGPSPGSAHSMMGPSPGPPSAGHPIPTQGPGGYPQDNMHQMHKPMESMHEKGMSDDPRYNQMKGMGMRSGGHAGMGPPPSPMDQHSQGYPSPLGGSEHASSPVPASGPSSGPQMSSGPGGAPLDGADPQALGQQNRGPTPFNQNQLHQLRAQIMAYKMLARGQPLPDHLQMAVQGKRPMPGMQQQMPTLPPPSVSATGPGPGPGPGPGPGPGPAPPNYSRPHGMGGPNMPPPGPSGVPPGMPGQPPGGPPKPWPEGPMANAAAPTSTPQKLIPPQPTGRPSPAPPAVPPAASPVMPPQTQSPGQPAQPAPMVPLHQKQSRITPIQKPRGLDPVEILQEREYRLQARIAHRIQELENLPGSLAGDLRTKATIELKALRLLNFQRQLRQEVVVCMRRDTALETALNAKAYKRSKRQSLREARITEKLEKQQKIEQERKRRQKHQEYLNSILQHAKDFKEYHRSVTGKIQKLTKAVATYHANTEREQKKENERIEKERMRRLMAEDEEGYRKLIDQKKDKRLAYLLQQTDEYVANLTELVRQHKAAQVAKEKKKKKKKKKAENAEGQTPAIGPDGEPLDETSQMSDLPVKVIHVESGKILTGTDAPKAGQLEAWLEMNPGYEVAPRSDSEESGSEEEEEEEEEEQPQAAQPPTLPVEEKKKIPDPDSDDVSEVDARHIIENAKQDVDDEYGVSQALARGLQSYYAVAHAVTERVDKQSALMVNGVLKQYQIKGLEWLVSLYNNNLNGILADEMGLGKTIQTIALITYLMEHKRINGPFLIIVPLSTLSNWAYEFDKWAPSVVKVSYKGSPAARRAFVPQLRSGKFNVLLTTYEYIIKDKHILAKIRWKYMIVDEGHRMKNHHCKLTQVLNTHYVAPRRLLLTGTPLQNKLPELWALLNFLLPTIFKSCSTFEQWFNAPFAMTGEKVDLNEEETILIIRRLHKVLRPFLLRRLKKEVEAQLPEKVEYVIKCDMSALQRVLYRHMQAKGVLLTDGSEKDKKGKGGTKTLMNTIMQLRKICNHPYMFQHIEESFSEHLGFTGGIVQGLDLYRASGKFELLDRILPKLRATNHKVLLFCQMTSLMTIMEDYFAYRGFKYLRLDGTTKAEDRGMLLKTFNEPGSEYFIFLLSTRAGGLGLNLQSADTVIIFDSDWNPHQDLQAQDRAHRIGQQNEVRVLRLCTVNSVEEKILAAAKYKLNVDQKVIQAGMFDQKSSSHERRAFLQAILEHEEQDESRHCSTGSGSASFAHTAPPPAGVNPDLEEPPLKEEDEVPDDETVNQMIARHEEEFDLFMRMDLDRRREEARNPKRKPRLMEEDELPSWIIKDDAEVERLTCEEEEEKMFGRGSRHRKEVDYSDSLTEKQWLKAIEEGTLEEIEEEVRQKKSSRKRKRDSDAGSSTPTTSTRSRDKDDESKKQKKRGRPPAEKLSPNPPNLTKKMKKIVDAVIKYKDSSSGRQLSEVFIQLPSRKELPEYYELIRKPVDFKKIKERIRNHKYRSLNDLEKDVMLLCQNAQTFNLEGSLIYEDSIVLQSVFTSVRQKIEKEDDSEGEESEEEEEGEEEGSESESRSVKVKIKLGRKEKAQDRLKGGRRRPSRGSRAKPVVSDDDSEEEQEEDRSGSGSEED
UniProt O75533: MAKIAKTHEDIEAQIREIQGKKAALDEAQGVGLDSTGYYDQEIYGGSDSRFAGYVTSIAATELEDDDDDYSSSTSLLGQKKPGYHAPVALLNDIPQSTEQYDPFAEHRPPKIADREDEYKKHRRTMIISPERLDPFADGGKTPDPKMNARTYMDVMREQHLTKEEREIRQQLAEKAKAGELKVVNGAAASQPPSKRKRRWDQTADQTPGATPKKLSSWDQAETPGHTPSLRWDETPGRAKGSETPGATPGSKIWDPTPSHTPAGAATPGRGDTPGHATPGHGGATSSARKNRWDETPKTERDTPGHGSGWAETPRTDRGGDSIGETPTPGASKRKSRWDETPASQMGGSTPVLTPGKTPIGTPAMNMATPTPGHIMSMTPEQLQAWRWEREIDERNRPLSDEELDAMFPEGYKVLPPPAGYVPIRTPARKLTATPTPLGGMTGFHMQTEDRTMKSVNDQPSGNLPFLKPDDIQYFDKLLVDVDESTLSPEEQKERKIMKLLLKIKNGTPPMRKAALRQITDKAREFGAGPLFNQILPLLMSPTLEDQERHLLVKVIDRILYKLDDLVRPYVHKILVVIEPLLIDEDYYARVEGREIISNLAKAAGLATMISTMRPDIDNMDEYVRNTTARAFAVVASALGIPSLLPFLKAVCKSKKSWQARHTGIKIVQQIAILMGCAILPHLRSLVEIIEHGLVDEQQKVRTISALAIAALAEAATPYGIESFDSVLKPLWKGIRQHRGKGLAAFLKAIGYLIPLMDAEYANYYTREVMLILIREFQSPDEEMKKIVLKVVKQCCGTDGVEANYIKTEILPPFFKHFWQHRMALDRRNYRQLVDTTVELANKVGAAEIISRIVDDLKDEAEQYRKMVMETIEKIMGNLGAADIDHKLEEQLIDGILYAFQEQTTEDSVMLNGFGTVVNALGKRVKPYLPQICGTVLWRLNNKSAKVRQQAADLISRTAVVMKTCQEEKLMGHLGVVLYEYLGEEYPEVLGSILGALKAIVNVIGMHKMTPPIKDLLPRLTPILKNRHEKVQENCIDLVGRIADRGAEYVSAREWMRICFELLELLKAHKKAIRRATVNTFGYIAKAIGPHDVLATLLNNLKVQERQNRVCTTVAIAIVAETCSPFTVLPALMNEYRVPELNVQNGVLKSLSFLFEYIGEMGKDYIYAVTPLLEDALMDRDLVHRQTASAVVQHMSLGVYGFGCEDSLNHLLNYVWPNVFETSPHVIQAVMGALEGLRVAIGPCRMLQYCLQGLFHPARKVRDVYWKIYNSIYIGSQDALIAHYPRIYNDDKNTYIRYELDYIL

These are yes or no findings as the source states them, for the method shown. Binding seen in cells or lysates may run through a third protein. Some entries that bind do so weakly or less than the wild type.

The test addresses BRG1 (human (endogenous in HeLa)) (UniProt P51532). Briefly: co-IP.

Turning to SAP155 (from UniProt O75533 1-1304), the binding entry is “binds”.

B1: hnRNPL (protein, UniProt P14866 1-589)
chain: MSRRLLPRAEKRRRRLEQRQQPDEQRRRSGAMVKMAAAGGGGGGGRYYGGGSEGGRAPKRLKTDNAGDQHGGGGGGGGGAGAAGGGGGGENYDDPHKTPASPVVHIRGLIDGVVEADLVEALQEFGPISYVVVMPKKRQALVEFEDVLGACNAVNYAADNQIYIAGHPAFVNYSTSQKISRPGDSDDSRSVNSVLLFTILNPIYSITTDVLYTICNPCGPVQRIVIFRKNGVQAMVEFDSVQSAQRAKASLNGADIYSGCCTLKIEYAKPTRLNVFKNDQDTWDYTNPNLSGQGDPGSNPNKRQRQPPLLGDHPAEYGGPHGGYHSHYHDEGYGPPPPHYEGRRMGPPVGGHRRGPSRYGPQYGHPPPPPPPPEYGPHADSPVLMVYGLDQSKMNCDRVFNVFCLYGNVEKVKFMKSKPGAAMVEMADGYAVDRAITHLNNNFMFGQKLNVCVSKQPAIMPGQSYGLEDGSCSYKDFSESRNNRFSTPEQAAKNRIQHPSNVLHFFNAPLEVTEENFFEICDELGVKRPSSVKVFSGKSERSSSGLLEWESKSDALETLGFLNHYQMKNPNGPYPYTLKLCFSTAQHAS
As for B1, the binding result is given as “binds”.
